Experimental data published in the supplement of paper PMC6411743.
± gives the standard deviation of the averaged measurements. This is a selection; strong and weak results do not stand in their true shares. Small differences around the control level are noise.

Sequences of proteins named here, by UniProt entry; tags and fusion partners are left off. A change or cut given only in a name is not applied to a line headed by its entry.
UniProt Q9P109: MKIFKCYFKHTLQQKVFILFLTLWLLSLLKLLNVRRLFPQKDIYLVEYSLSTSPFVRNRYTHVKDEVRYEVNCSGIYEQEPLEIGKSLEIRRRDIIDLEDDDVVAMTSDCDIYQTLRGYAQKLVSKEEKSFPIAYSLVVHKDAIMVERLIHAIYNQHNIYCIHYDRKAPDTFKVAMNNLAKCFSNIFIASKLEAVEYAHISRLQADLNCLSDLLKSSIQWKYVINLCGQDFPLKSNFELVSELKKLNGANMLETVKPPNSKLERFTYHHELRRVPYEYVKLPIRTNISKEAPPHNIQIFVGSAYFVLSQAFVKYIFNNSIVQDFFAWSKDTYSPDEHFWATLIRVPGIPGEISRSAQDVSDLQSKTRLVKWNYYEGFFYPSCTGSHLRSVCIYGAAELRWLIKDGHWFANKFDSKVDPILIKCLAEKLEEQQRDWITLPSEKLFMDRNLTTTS
UniProt Q9NVN8: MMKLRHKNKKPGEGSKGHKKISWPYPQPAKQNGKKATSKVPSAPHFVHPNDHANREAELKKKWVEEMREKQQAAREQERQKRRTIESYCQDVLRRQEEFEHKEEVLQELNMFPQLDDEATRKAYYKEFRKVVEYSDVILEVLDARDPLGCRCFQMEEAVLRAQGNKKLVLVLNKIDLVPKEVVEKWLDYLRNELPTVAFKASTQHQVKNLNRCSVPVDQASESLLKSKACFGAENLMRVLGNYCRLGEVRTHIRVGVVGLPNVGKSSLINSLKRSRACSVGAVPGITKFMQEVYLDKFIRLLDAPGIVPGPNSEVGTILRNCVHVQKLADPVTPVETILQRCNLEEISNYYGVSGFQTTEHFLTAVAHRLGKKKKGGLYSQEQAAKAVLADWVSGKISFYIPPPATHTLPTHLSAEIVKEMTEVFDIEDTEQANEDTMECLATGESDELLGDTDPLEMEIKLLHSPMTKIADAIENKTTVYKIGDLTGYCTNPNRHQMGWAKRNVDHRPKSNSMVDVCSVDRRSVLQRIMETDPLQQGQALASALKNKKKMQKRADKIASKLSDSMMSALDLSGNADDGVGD
UniProt Q9P0L0: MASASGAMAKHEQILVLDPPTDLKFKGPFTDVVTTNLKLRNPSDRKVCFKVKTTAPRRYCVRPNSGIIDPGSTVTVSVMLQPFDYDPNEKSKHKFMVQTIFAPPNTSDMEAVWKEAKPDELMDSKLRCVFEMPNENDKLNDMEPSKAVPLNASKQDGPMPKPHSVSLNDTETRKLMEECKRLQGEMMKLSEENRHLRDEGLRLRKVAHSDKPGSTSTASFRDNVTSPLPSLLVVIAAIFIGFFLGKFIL
UniProt Q9NUG6, whole entry: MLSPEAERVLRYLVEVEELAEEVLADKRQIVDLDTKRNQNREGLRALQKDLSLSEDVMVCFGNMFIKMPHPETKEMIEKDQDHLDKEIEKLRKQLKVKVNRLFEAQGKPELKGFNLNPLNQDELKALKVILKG
UniProt Q9NQS7, whole entry: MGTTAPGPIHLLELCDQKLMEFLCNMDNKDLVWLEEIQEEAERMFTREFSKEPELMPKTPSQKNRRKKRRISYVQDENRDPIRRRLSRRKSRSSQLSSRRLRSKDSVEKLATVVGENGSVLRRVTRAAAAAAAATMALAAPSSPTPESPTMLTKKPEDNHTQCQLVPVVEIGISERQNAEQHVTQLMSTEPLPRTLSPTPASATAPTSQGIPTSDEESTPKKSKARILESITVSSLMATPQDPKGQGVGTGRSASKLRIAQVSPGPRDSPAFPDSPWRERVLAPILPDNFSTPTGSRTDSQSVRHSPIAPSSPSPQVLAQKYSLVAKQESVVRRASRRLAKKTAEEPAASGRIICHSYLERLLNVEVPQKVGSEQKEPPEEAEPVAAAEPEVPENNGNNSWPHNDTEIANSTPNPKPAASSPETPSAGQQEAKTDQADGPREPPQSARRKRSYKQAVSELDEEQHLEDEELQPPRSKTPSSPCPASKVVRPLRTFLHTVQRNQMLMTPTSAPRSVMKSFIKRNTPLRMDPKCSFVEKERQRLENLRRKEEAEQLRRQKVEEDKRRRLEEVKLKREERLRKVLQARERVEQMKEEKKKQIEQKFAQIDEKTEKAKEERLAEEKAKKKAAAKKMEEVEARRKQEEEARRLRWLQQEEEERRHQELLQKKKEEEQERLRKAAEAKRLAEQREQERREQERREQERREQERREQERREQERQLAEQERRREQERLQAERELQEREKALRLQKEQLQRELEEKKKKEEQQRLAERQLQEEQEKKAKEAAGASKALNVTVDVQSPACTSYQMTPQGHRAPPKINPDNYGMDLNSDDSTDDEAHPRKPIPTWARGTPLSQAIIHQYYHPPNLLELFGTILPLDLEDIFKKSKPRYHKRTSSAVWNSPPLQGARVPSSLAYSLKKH
UniProt Q9NQT4, whole entry: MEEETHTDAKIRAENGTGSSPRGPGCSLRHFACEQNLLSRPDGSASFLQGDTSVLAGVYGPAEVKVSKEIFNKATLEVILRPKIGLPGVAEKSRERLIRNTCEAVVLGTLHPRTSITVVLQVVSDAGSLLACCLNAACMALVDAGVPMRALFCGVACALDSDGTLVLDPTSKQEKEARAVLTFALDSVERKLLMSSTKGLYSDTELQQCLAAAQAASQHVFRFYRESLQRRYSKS
UniProt Q9NXK8: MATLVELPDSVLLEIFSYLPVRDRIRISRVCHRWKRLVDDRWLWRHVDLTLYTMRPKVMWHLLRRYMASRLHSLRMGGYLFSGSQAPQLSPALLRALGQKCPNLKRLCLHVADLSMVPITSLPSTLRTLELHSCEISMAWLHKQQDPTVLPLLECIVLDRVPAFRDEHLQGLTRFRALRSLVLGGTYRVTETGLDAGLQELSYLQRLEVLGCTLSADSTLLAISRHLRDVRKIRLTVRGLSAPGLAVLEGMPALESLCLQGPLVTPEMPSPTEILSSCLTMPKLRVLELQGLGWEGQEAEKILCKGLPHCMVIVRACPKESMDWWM
UniProt Q9P0R6: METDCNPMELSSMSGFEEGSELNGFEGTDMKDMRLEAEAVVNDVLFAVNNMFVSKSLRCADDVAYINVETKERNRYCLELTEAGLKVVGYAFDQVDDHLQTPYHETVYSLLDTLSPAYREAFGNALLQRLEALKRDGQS
UniProt Q9NZT2: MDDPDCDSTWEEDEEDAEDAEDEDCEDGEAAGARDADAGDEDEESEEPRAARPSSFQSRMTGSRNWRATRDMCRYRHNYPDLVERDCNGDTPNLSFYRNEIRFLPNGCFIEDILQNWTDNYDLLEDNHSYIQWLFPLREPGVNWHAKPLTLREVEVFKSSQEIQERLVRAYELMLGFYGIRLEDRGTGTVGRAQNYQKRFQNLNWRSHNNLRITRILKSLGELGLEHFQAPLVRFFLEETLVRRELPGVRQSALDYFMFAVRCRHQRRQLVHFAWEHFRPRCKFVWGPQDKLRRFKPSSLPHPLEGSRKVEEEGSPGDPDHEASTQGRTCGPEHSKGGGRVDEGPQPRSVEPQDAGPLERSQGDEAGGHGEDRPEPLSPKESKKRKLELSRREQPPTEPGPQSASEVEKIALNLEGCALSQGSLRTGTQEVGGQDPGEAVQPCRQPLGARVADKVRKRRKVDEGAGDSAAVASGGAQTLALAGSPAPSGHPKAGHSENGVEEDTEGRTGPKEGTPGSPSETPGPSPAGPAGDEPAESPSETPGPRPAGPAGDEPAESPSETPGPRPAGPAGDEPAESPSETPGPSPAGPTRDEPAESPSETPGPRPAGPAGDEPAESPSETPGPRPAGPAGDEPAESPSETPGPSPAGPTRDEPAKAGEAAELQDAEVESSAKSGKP
UniProt Q9NZD8: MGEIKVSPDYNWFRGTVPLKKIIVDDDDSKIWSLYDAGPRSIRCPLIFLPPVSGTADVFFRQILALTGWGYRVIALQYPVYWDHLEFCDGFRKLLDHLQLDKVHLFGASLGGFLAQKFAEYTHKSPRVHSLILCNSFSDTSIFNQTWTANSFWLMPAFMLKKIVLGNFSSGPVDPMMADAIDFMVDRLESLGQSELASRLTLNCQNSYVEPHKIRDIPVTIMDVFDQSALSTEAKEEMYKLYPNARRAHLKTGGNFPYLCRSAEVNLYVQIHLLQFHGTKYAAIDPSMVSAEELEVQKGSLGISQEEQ
UniProt Q9NV35: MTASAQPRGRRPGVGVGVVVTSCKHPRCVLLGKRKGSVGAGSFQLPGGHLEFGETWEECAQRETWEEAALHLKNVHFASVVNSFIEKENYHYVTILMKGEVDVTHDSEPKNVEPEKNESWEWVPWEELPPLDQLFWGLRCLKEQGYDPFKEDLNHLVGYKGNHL
UniProt Q9NZB8: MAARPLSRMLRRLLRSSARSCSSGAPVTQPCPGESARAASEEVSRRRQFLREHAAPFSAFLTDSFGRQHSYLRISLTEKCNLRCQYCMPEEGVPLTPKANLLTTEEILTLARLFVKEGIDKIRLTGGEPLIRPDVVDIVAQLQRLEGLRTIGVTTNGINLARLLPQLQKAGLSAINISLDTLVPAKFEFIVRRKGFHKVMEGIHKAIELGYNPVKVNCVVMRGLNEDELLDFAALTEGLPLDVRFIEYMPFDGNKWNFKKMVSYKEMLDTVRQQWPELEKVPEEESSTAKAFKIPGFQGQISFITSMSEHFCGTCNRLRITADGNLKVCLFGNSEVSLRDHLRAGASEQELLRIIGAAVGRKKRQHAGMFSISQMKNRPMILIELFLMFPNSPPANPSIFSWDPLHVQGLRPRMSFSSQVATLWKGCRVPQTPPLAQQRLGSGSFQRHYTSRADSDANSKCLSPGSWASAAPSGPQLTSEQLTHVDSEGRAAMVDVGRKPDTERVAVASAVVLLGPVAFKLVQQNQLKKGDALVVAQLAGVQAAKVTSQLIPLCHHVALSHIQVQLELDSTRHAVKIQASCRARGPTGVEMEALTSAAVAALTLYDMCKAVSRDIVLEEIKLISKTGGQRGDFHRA
UniProt Q9NW15: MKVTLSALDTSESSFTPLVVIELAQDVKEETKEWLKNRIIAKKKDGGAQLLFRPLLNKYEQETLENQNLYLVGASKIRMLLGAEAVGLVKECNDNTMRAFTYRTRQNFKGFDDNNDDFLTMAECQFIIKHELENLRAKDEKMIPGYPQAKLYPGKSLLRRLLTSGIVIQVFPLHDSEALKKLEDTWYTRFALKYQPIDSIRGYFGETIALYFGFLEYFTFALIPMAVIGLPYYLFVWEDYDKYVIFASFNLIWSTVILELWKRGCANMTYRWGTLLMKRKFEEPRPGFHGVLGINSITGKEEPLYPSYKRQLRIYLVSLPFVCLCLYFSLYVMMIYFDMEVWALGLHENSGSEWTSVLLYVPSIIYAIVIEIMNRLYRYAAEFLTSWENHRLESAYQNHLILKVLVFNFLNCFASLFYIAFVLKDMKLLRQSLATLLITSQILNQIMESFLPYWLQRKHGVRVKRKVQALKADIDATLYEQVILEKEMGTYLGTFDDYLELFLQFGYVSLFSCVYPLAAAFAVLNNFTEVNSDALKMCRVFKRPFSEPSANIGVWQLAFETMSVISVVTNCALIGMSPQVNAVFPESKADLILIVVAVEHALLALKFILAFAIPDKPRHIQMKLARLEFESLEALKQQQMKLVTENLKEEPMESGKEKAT
UniProt Q9UBD5: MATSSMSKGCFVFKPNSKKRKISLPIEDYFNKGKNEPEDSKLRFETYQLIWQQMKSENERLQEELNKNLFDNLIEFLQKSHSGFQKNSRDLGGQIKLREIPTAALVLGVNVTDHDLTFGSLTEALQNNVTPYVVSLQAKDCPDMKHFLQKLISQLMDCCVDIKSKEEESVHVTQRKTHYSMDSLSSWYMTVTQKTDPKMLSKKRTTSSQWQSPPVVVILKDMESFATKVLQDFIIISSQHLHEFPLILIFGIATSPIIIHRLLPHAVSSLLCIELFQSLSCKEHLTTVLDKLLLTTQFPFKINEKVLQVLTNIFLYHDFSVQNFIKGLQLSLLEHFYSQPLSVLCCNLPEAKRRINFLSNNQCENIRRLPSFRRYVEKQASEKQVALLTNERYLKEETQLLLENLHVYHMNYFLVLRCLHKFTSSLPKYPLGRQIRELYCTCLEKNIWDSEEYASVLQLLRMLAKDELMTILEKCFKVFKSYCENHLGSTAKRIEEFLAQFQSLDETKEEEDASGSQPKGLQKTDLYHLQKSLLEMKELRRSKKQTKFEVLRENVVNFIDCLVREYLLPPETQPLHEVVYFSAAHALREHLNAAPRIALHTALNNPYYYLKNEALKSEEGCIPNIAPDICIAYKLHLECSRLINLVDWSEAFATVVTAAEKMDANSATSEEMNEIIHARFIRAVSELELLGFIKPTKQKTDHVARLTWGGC
UniProt Q9NT62, whole entry: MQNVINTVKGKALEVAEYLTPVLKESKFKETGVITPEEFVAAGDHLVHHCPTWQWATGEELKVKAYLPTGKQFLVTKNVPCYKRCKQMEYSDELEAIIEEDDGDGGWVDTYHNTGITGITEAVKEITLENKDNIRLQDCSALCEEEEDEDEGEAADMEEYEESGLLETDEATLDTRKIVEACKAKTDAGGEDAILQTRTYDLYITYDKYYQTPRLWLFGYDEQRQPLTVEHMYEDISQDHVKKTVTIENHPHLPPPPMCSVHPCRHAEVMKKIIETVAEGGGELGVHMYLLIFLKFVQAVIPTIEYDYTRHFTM

Compound: Nc1ncnc2c1ncn2[C@@H]1O[C@H](COP(=O)(O)OP(=O)(O)NP(=O)(O)O)[C@@H](O)[C@H]1O [adenylyl imidodiphosphate]
Experiment: NP40-soluble protein abundance relative to vehicle (solubility fold change) (ratio); higher = more soluble protein in presence of AMP-PNP
In short: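 Data come from three independent experiments in which Dounce-homogenised Jurkat crude lysate was treated at eight concentrations from 0.1 to 10 mM. Treatment ran 10 min at room temperature and then 3 min at 37 °C, after which 0.8% NP40 and benzonase were added for 60 min at 4 °C before ultracentrifugation. The supernatant underwent TMT labelling and LC-MS/MS, and vsn-normalised intensities were expressed as fold change against the detergent-processed vehicle in each replicate.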

Target	NP40-soluble protein abundance (concentration: 0.1mM)	NP40-soluble protein abundance (concentration: 0.5mM)
UniProt Q9P109	0.996 ± 0.027	0.997 ± 0.045
UniProt Q9P2K3-3|Q9P2K3-4	0.98 ± 0.039	1 ± 0.048
GNL3L (UniProt Q9NVN8)	1.03 ± 0.029	1.02 ± 0.06
UniProt Q9NX14 and related entries	1.1 ± 0.036	1.03 ± 0.031
UniProt Q9P0L0 and related entries	0.99 ± 0.017	1.03 ± 0.066
PDRG1 (UniProt Q9NUG6)	0.977 ± 0.016	1.02 ± 0.047
UniProt Q9NQS7 and related entries	1.0078 ± 0.0008	1.07 ± 0.1
EXOSC5 (UniProt Q9NQT4)	0.976 ± 0.021	1.01 ± 0.031
UniProt Q9P2A4 and related entries	0.998 ± 0.022	1.02 ± 0.054
UniProt Q9NXK8 and related entries	0.997 ± 0.013	0.984 ± 0.0029
GSKIP (UniProt Q9P0R6)	0.998 ± 0.055	0.9501 ± 0.003
OXSM (UniProt Q9NWU1)	0.987 ± 0.01	0.999 ± 0.015
UniProt Q9NZT2 and related entries	0.984 ± 0.016	0.993 ± 0.037
NHP2 (UniProt Q9NX24)	0.986 ± 0.065	0.991 ± 0.034
UniProt Q9NZD8 and related entries	0.989 ± 0.026	0.978 ± 0.022
BAZ1A (UniProt Q9NRL2)	0.999 ± 0.029	1.04 ± 0.043
NUDT15 (UniProt Q9NV35)	0.981 ± 0.023	1 ± 0.032
UniProt Q9NZB8 and related entries	1 ± 0.021	0.954 ± 0.064
UniProt Q9NW15 and related entries	1.01 ± 0.022	1 ± 0.014
UniProt Q9UBD5 and related entries	1 ± 0.026	0.99 ± 0.014
UniProt Q9NT62 and related entries	1.036 ± 0.0083	1.02 ± 0.032

Reformatted field by field: part of the list above
EXOSC5 (UniProt Q9NQT4)
  NP40-soluble protein abundance (concentration: 0.1mM): 0.976 ± 0.021
  NP40-soluble protein abundance (concentration: 0.5mM): 1.01 ± 0.031
GSKIP (UniProt Q9P0R6)
  NP40-soluble protein abundance (concentration: 0.1mM): 0.998 ± 0.055
  NP40-soluble protein abundance (concentration: 0.5mM): 0.9501 ± 0.003
